HELM strings list residues between dots; [ac] is acetyl, [am] amide, other brackets name non-standard units.
Experiment: general procedure: Boc solid-phase peptide synthesis; MBHA resin; DCC
Conditions: whole synthesis, CZE and RP-HPLC

**Q.** With “PEPTIDE1{[ac].[D-2NAL].[4Cl-D-Phe].[D-3PAL].S.[Aph(atz)].[D-Aph(atz)].L.[ILys].P.[dA].[am]}$$$$V2.0” as the substance, how does the “final HPLC purity” value read?
**A.** about 97%

From patent US5710249 (dated 1998)
